Common to all, as to assay: pull-down; GST::LIC::6xHis (50 pmol) with 50 or 250 pmol adaptor and glutathione agarose, 1 h at 4°C, 150 μL of 50 mM HEPES, 100 mM NaCl, 5 mM DTT, pH 7.5, 0.1% Tween 20; Coomassie staining and immunoblot against Strep-tag II; both purified
A general note: In western blotting, separated proteins are transferred to a membrane and probed.

Protein sequences, listed by entry. Tags and fused reporters are not part of them. Lines headed by an entry give the natural chain unless they say otherwise; changes in a name come on top. Chains listed by the source or under a name are the forms on record and can include a tag or linker.
GST::LIC2(451–492)::6xHis (O43237, form named): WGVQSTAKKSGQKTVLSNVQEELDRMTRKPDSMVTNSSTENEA
GST::LIC1(472–523)::6xHis (Q9Y6G9, form named): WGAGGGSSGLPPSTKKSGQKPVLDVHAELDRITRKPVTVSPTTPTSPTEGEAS
GST::LIC1-C(L451A/L452A)::6xHis (Q9Y6G9, form named): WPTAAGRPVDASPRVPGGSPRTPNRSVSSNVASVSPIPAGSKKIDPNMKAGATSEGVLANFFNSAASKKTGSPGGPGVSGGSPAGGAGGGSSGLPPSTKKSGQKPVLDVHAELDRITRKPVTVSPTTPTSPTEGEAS
GST::LIC1-C(F447A/F448A)::6xHis (Q9Y6G9, form named): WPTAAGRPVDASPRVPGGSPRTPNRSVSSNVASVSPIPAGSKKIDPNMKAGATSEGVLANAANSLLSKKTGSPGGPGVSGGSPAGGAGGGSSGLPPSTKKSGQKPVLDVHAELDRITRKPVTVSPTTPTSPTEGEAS
GST::LIC1-C(Δ440–455)::6xHis (Q9Y6G9, form named): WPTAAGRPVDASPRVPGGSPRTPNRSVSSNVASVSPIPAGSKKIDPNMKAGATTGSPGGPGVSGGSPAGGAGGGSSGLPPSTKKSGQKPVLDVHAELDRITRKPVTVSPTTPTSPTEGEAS
GST::LIC1(440–523)::6xHis (Q9Y6G9, form named): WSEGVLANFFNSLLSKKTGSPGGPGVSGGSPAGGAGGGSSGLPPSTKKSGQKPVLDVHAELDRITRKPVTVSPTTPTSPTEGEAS
GST::LIC1(388–523)::6xHis (Q9Y6G9, form named): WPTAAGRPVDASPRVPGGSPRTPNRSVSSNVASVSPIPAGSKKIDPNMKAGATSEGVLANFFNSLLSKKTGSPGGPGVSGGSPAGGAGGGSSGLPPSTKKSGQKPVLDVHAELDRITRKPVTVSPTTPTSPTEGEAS
UniProt Q96NA2: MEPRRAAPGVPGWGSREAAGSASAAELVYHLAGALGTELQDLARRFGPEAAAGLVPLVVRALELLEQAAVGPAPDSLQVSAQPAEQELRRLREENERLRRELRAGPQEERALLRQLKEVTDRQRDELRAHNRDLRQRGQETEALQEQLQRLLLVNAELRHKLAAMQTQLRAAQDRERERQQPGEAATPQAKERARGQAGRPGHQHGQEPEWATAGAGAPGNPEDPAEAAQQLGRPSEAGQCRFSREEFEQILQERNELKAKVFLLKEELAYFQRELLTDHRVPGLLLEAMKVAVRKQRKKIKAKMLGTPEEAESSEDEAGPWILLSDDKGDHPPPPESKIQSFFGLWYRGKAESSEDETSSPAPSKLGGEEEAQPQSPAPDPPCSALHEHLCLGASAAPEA

Assay [1] concerns the target GST::LIC2(451–492)::6xHis (human) (UniProt O43237).
Assay [2] deals with GST::LIC1(472–523)::6xHis (human) (UniProt Q9Y6G9).
Assay [3] deals with GST::LIC1-C(L451A/L452A)::6xHis (human) (UniProt Q9Y6G9).
In assay [4] the target is GST::LIC1(440–455)::6xHis (human) (UniProt Q9Y6G9).
For assay [5], the target named is GST::LIC1-C(F447A/F448A)::6xHis (human) (UniProt Q9Y6G9).
Assay [6] addresses GST::LIC1-C(Δ440–455)::6xHis (human) (UniProt Q9Y6G9).
Assay [7] has as its target GST::LIC1(440–523)::6xHis (human) (UniProt Q9Y6G9).
Assay [8] addresses GST::LIC1(388–523)::6xHis (human) (UniProt Q9Y6G9).
Assay [9] has as its target GST::LIC2(451–492)::6xHis (human) (UniProt O43237). This is another data set of the same source.

Like-named read-outs stand apart in the source and are kept apart here. Results are given in words; binding and its absence hold for the method and conditions named. Some results given as binding are weak or reduced against the parent protein; the word gives no strength. For some of these results: Where a sequence is shown, tags or fusion partners need not be part of it.

Turning to “RILP(1–401)::Strep-tag II (from UniProt Q96NA2 1-401)”, the binding entry in [1] is listed as “no binding (tested: 50 pmol in 150 μL)”.

B1: RAB11FIP3(2–756)::Strep-tag II (protein, UniProt O75154 2-756)
chain: ASAPPASPPGSEPPGPDPEPGGPDGPGAAQLAPGPAELRLGAPVGGPDPQSPGLDEPAPGAAADGGARWSAGPAPGLEGGPRDPGPSAPPPRSGPRGQLASPDAPGPGPRSEAPLPELDPLFSWTEEPEECGPASCPESAPFRLQGSSSSHRARGEVDVFSPFPAPTAGELALEQGPGSPPQPSDLSQTHPLPSEPVGSQEDGPRLRAVFDALDGDGDGFVRIEDFIQFATVYGAEQVKDLTKYLDPSGLGVISFEDFYQGITAIRNGDPDGQCYGGVASAQDEEPLACPDEFDDFVTYEANEVTDSAYMGSESTYSECETFTDEDTSTLVHPELQPEGDADSAGGSAVPSECLDAMEEPDHGALLLLPGRPHPHGQSVITVIGGEEHFEDYGEGSEAELSPETLCNGQLGCSDPAFLTPSPTKRLSSKKVARYLHQSGALTMEALEDPSPELMEGPEEDIADKVVFLERRVLELEKDTAATGEQHSRLRQENLQLVHRANALEEQLKEQELRACEMVLEETRRQKELLCKMEREKSIEIENLQTRLQQLDEENSELRSCTPCLKANIERLEEEKQKLLDEIESLTLRLSEEQENKRRMGDRLSHERHQFQRDKEATQELIEDLRKQLEHLQLLKLEAEQRRGRSSSMGLQEYHSRARESELEQEVRRLKQDNRNLKEQNEELNGQIITLSIQGAKSLFSTAFSESLAAEISSVSRDELMEAIQKQEEINFRLQDYIDRIIVAIMETNPSILEVK
For the molecule B1, the binding entry in assay [2], in assay [3], in assay [4], in assay [5] and in assay [6] was “no binding (tested: 50 pmol in 150 μL)” each time.

B2: HOOK3(2–552)::Strep-tag II (domain or fragment, UniProt Q86VS8 2-552)
chain: FSVESLERAELCESLLTWIQTFNVDAPCQTVEDLTNGVVMAQVLQKIDPAYFDENWLNRIKTEVGDNWRLKISNLKKILKGILDYNHEILGQQINDFTLPDVNLIGEHSDAAELGRMLQLILGCAVNCEQKQEYIQAIMMMEESVQHVVMTAIQELMSKESPVSAGNDAYVDLDRQLKKTTEELNEALSAKEEIAQRCHELDMQVAALQEEKSSLLAENQVLMERLNQSDSIEDPNSPAGRRHLQLQTQLEQLQEETFRLEAAKDDYRIRCEELEKEISELRQQNDELTTLADEAQSLKDEIDVLRHSSDKVSKLEGQVESYKKKLEDLGDLRRQVKLLEEKNTMYMQNTVSLEEELRKANAARSQLETYKRQVVELQNRLSEESKKADKLDFEYKRLKEKVDSLQKEKDRLRTERDSLKETIEELRCVQAQEGQLTTQGLMPLGSQESSDSLAAEIVTPEIREKLIRLQHENKMLKLNQEGSDNEKIALLQSLLDDANLRKNELETENRLVNQRLLEVQSQVEELQKSLQDQGSKAEDSVLLKKKLEEHL
Regarding B2, the binding entry in assay [2] was “no binding (tested: 50 pmol in 150 μL)”; in [7] it was “binds weakly”; in [3] it was “no binding (tested: 50 pmol in 150 μL)”; in assay [4], “no binding (tested: 50 pmol in 150 μL)”; in [5] it was “no binding (tested: 50 pmol in 150 μL)”; in assay [6], “no binding (tested: 50 pmol in 150 μL)”.

B3: 6xHis::MBP::TRAK1(103–187)::GCN4^CC::Strep-tag II (protein, UniProt Q9UPV9 103-187)
chain: GQMTKTYNDIDAVTRLLEEKERDLELAARIGQSLLKKNKTLTERNELLEEQVEHIREEVSQLRHELSMKDELLQFYTSAAEESEPVKQLEDKVEELLSKNAHLENEVARLKKLV
As to B3, the binding result in assay [8] was “binds weakly”; in assay [3] it was “no binding (tested: 250 pmol in 150 μL)”.

B4: 6xHis::MBP::TRAK1(103–187)::Strep-tag II (domain or fragment, UniProt Q9UPV9 103-187)
chain: GQMTKTYNDIDAVTRLLEEKERDLELAARIGQSLLKKNKTLTERNELLEEQVEHIREEVSQLRHELSMKDELLQFYTSAAEESEP
With B4, the binding entry in assay [8] was “no binding (tested: 250 pmol in 150 μL)”.

B5: SPDL1(2–359)::Strep-tag II (domain or fragment, UniProt Q96EA4 2-359)
chain: EADIITNLRCRLKEAEEERLKAAQYGLQLVESQNELQNQLDKCRNEMMTMTESYEQEKYTLQREVELKSRMLESLSCECEAIKQQQKMHLEKLEEQLSRSHGQEVNELKTKIEKLKVELDEARLSEKQLKHQVDHQKELLSCKSEELRVMSERVQESMSSEMLALQIELTEMESMKTTLKEEVNELQYRQEQLELLITNLMRQVDRLKEEKEEREKEAVSYYNALEKARVANQDLQVQLDQALQQALDPNSKGNSLFAEVEDRRAAMERQLISMKVKYQSLKKQNVFNREQMQRMKLQIATLLQMKGSQTEFEQQERLLAMLEQKNGEIKHLLGEIRNLEKFKNLYDSMESKPSVDSG
For B5, the binding entry in [9] is “no binding (tested: 250 pmol in 150 μL)”.

For the origin of these results see PMC6336354, “A transient helix in the disordered region of dynein light intermediate chain links the motor to structurally diverse adaptors for cargo transport” (PLoS Biology, 2019).
